These are yes or no findings as the source states them, for the method shown. Binding can be weak; no strength is given.
Target: full length human KLRG1 expressed on CHOK1 cells (CHOK1-hKLRG1) (human) (UniProt Q96E93)
Test: FACS on CHOK1-hKLRG1 cells (FIG. 1 legend)

Sequences of proteins named here, by UniProt entry; tags and fusion partners are left off. A change or cut given only in a name is not applied to a line headed by its entry.
UniProt Q96E93: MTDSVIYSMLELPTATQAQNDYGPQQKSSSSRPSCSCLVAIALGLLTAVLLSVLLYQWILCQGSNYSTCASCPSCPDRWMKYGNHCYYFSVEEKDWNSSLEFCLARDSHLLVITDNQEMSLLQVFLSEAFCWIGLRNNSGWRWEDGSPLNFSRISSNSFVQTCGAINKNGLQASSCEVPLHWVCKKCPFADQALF

binding: binds
B1: PA015 (antibody, human IgG1, kappa, V domains shown)
VH: QVTLRESGPALVKPTQTLTLTCTVSGFSLSTFGMGVGWIRQPPGKALEWLAHIWWDDDKWYELALKSRLTISKDTSKNQVVLTITNMDPVDTATYYCARVIYYGSRSAYYSMDYWGQGTTVTVSS
VL: DVVMTQTPLSLSVTPGQPASISCKSSQSIVHSNAHTYLEWYLQKPGQSPQLLIYKVSNRFSGVPDRFSGSGSGTDFTLKISRVEAEDVGVYYCFQGSHVPVTFGQGTKLEIKR

— patent publication US20240174754A1
